These are yes or no findings as the source states them, for the method shown. In cells and extracts the contact can be indirect. Some entries that bind do so weakly or less than the wild type.

Protein sequences, listed by entry. Tags and fused reporters are not part of them. Lines headed by an entry give the natural chain unless they say otherwise; changes in a name come on top.
UniProt P40763: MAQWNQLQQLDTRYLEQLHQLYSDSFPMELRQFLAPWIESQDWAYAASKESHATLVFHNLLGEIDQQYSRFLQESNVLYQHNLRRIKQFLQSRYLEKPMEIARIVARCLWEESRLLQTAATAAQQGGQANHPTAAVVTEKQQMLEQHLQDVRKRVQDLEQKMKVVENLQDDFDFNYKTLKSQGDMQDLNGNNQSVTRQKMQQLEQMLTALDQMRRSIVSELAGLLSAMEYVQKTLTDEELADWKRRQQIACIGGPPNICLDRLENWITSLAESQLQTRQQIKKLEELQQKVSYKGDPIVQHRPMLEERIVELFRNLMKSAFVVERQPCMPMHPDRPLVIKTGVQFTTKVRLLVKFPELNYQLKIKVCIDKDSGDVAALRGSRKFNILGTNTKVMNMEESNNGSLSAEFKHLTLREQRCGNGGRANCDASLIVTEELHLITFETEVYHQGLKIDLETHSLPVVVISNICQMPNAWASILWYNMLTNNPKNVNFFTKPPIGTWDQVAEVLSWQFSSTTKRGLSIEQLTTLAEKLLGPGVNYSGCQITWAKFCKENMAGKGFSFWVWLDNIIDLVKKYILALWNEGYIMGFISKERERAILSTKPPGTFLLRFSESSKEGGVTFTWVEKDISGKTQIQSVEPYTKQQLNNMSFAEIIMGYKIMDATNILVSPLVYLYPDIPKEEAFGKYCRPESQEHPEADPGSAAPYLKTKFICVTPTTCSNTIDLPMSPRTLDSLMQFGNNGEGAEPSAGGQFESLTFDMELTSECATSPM

Drawing on paper PMC7181646, this text covers binding for six molecules.

The target of assay [1] is T1, BCL9 overexpression (PCDH-BCL9) (UniProt O00512).
T1 sequence: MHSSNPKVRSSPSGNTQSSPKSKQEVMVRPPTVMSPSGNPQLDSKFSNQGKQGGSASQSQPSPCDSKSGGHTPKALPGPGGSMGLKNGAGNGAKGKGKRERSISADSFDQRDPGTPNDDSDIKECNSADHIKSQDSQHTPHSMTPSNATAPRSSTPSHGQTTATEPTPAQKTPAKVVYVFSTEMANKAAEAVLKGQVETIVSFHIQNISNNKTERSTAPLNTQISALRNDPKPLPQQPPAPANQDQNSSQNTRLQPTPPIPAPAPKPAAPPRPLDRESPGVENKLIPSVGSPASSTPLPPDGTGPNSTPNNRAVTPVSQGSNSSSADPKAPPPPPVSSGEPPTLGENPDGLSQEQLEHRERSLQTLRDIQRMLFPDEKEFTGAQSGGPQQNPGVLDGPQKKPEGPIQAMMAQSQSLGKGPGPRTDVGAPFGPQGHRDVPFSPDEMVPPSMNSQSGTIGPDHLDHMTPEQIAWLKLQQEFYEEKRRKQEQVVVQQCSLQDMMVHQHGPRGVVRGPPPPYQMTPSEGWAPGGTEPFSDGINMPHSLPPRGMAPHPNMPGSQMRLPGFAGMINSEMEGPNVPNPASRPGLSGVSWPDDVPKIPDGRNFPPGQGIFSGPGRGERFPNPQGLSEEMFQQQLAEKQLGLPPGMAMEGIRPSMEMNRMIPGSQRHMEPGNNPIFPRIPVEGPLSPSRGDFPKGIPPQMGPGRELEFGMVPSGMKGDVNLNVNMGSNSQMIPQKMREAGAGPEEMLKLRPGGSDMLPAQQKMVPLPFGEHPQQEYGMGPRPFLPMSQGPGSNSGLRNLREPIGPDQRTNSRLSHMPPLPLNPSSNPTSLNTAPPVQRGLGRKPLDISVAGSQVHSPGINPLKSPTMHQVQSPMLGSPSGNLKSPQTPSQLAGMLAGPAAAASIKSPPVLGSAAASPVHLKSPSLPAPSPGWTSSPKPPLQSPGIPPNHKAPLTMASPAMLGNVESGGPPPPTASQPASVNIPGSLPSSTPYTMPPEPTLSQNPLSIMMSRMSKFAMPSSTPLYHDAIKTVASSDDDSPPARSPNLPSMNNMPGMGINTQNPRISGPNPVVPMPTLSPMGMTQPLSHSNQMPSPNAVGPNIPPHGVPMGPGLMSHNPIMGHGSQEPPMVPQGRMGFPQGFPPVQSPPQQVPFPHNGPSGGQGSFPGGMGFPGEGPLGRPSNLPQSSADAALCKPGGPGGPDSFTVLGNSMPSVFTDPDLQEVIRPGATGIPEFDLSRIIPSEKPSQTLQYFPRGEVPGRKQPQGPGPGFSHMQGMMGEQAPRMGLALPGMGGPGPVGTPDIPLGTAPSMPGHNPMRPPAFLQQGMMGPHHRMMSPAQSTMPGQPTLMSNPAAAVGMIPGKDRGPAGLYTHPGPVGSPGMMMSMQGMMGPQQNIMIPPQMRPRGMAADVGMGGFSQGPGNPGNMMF
The assay can be described thus: proximity ligation; Duolink PLA in 293T cells transfected with BCL9 overexpression and a STAT3 construct; signals quantified in three biological replicates.

In assay [2] the target is T2, B Cell Lymphoma-9 (BCL9) (human (endogenous in DCIS.COM and SUM225)) (UniProt O00512).
T2 sequence: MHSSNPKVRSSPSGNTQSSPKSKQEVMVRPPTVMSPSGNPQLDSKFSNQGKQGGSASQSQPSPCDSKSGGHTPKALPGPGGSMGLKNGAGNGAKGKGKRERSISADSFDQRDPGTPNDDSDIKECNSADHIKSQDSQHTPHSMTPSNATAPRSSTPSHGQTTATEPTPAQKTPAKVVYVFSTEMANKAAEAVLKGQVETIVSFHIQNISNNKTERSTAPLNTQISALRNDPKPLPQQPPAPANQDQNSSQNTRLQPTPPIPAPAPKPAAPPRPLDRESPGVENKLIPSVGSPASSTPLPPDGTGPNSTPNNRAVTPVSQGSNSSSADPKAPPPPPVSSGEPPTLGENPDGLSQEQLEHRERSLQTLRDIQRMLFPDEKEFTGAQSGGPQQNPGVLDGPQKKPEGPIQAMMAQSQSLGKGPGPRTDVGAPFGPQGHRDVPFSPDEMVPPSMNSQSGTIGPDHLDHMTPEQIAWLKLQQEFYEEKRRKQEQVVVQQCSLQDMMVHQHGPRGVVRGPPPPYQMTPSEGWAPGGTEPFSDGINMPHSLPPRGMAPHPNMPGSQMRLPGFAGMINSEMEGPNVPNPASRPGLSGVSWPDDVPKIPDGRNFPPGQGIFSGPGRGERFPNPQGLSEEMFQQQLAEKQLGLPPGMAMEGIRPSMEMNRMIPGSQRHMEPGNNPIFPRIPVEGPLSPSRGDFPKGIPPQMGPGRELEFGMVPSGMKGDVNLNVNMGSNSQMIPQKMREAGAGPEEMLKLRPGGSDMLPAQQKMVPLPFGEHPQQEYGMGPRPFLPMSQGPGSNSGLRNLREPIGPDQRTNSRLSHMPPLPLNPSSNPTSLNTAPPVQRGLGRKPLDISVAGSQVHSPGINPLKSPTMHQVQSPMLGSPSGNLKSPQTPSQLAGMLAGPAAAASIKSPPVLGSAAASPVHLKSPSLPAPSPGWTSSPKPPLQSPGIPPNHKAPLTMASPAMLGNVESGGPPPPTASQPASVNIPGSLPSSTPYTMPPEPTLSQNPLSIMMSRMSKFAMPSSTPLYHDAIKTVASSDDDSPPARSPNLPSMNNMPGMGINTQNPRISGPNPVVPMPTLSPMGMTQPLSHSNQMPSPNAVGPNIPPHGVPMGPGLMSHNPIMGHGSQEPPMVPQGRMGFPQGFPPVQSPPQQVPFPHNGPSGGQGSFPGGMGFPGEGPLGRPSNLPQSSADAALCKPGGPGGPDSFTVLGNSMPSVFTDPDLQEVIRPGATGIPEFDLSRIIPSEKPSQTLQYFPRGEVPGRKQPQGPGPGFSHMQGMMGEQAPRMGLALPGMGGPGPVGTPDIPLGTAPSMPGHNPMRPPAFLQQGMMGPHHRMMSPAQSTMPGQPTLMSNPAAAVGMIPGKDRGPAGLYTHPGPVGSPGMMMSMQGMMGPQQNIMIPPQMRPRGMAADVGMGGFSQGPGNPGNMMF
Description: proximity ligation; Duolink PLA on fixed, Triton X-100 permeabilised DCIS.COM cells; mouse anti-P(S727) STAT3 and rabbit anti-BCL9 primary antibodies; endogenous proteins.

Assay [3] deals with T2, B Cell Lymphoma-9 (BCL9) (human (endogenous in DCIS.COM and SUM225)). Description: co-IP; whole-cell extracts of DCIS.COM and SUM225; immunoprecipitation with anti-BCL9 or (reverse) anti-STAT3 antibody, control IgG; Western blot.
Assay [4] addresses STAT3 (human (endogenous in DCIS.COM and SUM225)) (UniProt P40763). The description is as above.

Turning to “mutant Y705F-STAT3 (from UniProt P40763 1-770)”, the binding result in assay [1] is “binds”.
Consider “mutant S727A-STAT3 (from UniProt P40763 1-770)”, for which the binding entry in assay [1] is reported as “binds”.
As for “phosphoserine 727 STAT3 (PS-727-STAT3) (from UniProt P40763 1-770)”, the binding entry in assay [2] is “binds”.
As for “non-mutated wild-type (WT)-STAT3 (from UniProt P40763 1-770)”, the binding entry in assay [1] is “binds”.
With STAT3 (from UniProt P40763 1-770), the binding result in assay [3] is given as “binds”.

B1: B Cell Lymphoma-9 (BCL9) (protein, UniProt O00512 1-1426)
chain: MHSSNPKVRSSPSGNTQSSPKSKQEVMVRPPTVMSPSGNPQLDSKFSNQGKQGGSASQSQPSPCDSKSGGHTPKALPGPGGSMGLKNGAGNGAKGKGKRERSISADSFDQRDPGTPNDDSDIKECNSADHIKSQDSQHTPHSMTPSNATAPRSSTPSHGQTTATEPTPAQKTPAKVVYVFSTEMANKAAEAVLKGQVETIVSFHIQNISNNKTERSTAPLNTQISALRNDPKPLPQQPPAPANQDQNSSQNTRLQPTPPIPAPAPKPAAPPRPLDRESPGVENKLIPSVGSPASSTPLPPDGTGPNSTPNNRAVTPVSQGSNSSSADPKAPPPPPVSSGEPPTLGENPDGLSQEQLEHRERSLQTLRDIQRMLFPDEKEFTGAQSGGPQQNPGVLDGPQKKPEGPIQAMMAQSQSLGKGPGPRTDVGAPFGPQGHRDVPFSPDEMVPPSMNSQSGTIGPDHLDHMTPEQIAWLKLQQEFYEEKRRKQEQVVVQQCSLQDMMVHQHGPRGVVRGPPPPYQMTPSEGWAPGGTEPFSDGINMPHSLPPRGMAPHPNMPGSQMRLPGFAGMINSEMEGPNVPNPASRPGLSGVSWPDDVPKIPDGRNFPPGQGIFSGPGRGERFPNPQGLSEEMFQQQLAEKQLGLPPGMAMEGIRPSMEMNRMIPGSQRHMEPGNNPIFPRIPVEGPLSPSRGDFPKGIPPQMGPGRELEFGMVPSGMKGDVNLNVNMGSNSQMIPQKMREAGAGPEEMLKLRPGGSDMLPAQQKMVPLPFGEHPQQEYGMGPRPFLPMSQGPGSNSGLRNLREPIGPDQRTNSRLSHMPPLPLNPSSNPTSLNTAPPVQRGLGRKPLDISVAGSQVHSPGINPLKSPTMHQVQSPMLGSPSGNLKSPQTPSQLAGMLAGPAAAASIKSPPVLGSAAASPVHLKSPSLPAPSPGWTSSPKPPLQSPGIPPNHKAPLTMASPAMLGNVESGGPPPPTASQPASVNIPGSLPSSTPYTMPPEPTLSQNPLSIMMSRMSKFAMPSSTPLYHDAIKTVASSDDDSPPARSPNLPSMNNMPGMGINTQNPRISGPNPVVPMPTLSPMGMTQPLSHSNQMPSPNAVGPNIPPHGVPMGPGLMSHNPIMGHGSQEPPMVPQGRMGFPQGFPPVQSPPQQVPFPHNGPSGGQGSFPGGMGFPGEGPLGRPSNLPQSSADAALCKPGGPGGPDSFTVLGNSMPSVFTDPDLQEVIRPGATGIPEFDLSRIIPSEKPSQTLQYFPRGEVPGRKQPQGPGPGFSHMQGMMGEQAPRMGLALPGMGGPGPVGTPDIPLGTAPSMPGHNPMRPPAFLQQGMMGPHHRMMSPAQSTMPGQPTLMSNPAAAVGMIPGKDRGPAGLYTHPGPVGSPGMMMSMQGMMGPQQNIMIPPQMRPRGMAADVGMGGFSQGPGNPGNMMF
B1: the binding result in assay [4] is recorded as “binds”.
